Source: PMC12709188
No constants are given. Whether binding was seen depends on the method and setting. Binding can be weak; no strength is given. For some of these results: In cells and extracts the contact can be indirect. Blank lines part the entries; values can stand above or below the substance they belong to.

Sequences of proteins named here, by UniProt entry; tags and fusion partners are left off. A change or cut given only in a name is not applied to a line headed by its entry.
UniProt A0R4M8: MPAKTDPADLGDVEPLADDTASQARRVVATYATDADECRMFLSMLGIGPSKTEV
UniProt A0R561: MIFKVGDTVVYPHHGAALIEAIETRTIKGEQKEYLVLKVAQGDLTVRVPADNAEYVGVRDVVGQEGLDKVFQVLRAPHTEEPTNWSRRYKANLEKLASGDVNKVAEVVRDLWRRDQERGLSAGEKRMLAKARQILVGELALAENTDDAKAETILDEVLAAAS
UniProt A0QQC8: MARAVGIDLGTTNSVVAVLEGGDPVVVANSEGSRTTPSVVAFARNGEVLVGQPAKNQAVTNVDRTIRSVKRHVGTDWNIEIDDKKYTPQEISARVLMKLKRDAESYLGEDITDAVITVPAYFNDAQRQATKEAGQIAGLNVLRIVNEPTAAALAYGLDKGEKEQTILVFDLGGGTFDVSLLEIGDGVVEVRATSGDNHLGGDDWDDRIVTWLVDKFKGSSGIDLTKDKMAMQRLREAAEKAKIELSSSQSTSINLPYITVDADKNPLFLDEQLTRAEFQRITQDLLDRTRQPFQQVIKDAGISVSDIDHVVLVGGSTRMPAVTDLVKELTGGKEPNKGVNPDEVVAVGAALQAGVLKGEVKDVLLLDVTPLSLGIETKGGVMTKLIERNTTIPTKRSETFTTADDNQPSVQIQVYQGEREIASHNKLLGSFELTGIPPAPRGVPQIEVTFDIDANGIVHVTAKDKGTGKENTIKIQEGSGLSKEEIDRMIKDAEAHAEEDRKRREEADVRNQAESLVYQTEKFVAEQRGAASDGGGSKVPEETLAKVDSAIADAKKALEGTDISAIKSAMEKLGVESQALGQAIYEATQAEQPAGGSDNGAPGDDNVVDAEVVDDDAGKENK

Legend:
[1] = molecular target: CrsL–FLAG (FLAG-tagged CrsL under an ATc inducible promoter) (M. smegmatis) (UniProt A0R4M8); assay: co-IP; FLAG pull-down: M. smegmatis lysates (2–4 mg protein; exponential and stationary phase; for RNAP-FLAG also after crsL knock-down) with M2 anti-FLAG resin 16–18 h at 4°C in 20 mM Tris–HCl pH 7.9, 150 mM KCl, 1 mM MgCl2; SDS–PAGE, silver stain, bands identified by MALDI-FTICR MS and/or western blot
[2] = molecular target: CrsL–His (in vitro purified CrsL) (M. smegmatis) (UniProt A0R4M8); assay: far-Western, overlay or dot blot; BSA, CarD–NT and CrsL–His resolved by SDS–PAGE, blotted on nitrocellulose, denatured and renatured with guanidine–HCl; membrane incubated overnight with purified CarD (20 μg in 10 ml), detected with anti-CarD antibody; both purified
[3] = molecular target: CrsL–His (in vitro purified CrsL) (M. smegmatis) (UniProt A0R4M8); assay: NMR titration; 2D 1H–15N HSQC of [15N]-CrsL with 0–400 μM unlabeled CarD, and spectra of [13C,15N]-CarD with unlabeled CrsL; high-salt NMR buffer (20 mM sodium phosphate pH 7, 0.5 mM TCEP, 300 mM NaCl), 27°C; both purified
[4] = molecular target: CarD–NT (in vitro purified CarD) (M. smegmatis) (UniProt A0R561); assay: native gel or EMSA; purified CrsL, CarD and DnaK mixed in 1× STB buffer (50 mM Tris–HCl pH 8.0, 5 mM Mg acetate, 100 μM DTT, 50 mM KCl, 50 μg/ml BSA), 37°C 15 min; 8% native gel at 4°C; Coomassie stain, bands confirmed by mass spectrometry; both purified
[5] = molecular target: CarD–NT (in vitro purified CarD) (M. smegmatis) (UniProt A0R561); assay: NMR titration; 2D 1H–15N HSQC of [15N]-CrsL with 0–400 μM unlabeled CarD, and spectra of [13C,15N]-CarD with unlabeled CrsL; high-salt NMR buffer (20 mM sodium phosphate pH 7, 0.5 mM TCEP, 300 mM NaCl), 27°C; both purified
[6] = molecular target: CrsL–His (in vitro purified CrsL) (M. smegmatis) (UniProt A0R4M8); assay: native gel or EMSA; purified CrsL, CarD and DnaK mixed in 1× STB buffer (50 mM Tris–HCl pH 8.0, 5 mM Mg acetate, 100 μM DTT, 50 mM KCl, 50 μg/ml BSA), 37°C 15 min; 8% native gel at 4°C; Coomassie stain, bands confirmed by mass spectrometry; both purified

binding [2]: binds
binding [3]: binds
Substance: CarD–NT (in vitro purified CarD) (from UniProt A0R561 1-162)

binding [1]: binds
Substance: DnaK chaperon protein (MSMEG_0709) (from UniProt A0QQC8 1-622)

binding [6]: binds weakly
Substance: DnaK-His (in vitro purified DnaK) (from UniProt A0QQC8 1-622)

Further lines, the substance ahead of its results:

Substance: CarD (from UniProt A0R561 1-162)
binding [1]: binds

Substance: CrsL–His (in vitro purified CrsL) (from UniProt A0R4M8)
binding [4]: binds
binding [5]: binds
